Laboratory results published in article PMC10850381.
These are yes or no findings as the source states them, for the method shown. For some of these results: Binding seen in cells or lysates may run through a third protein. Some binding calls cover weakened binding; strength is not graded here.

Protein sequences, listed by entry. Tags and fused reporters are not part of them. Lines headed by an entry give the natural chain unless they say otherwise; changes in a name come on top. Residues count along the entry.
UniProt P10909: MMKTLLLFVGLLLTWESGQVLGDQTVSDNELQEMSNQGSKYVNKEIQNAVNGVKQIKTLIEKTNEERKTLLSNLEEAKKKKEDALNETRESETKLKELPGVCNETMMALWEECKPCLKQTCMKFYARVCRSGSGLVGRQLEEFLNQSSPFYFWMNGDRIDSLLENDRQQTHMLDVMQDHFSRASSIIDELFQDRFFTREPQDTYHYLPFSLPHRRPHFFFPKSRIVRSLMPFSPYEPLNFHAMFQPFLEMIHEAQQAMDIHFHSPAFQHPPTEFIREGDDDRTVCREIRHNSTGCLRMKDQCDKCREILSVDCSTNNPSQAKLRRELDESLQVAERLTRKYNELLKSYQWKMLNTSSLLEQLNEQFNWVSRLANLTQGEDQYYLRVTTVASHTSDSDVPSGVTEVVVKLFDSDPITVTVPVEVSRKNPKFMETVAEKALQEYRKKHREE
UniProt P10643, residues 23-843: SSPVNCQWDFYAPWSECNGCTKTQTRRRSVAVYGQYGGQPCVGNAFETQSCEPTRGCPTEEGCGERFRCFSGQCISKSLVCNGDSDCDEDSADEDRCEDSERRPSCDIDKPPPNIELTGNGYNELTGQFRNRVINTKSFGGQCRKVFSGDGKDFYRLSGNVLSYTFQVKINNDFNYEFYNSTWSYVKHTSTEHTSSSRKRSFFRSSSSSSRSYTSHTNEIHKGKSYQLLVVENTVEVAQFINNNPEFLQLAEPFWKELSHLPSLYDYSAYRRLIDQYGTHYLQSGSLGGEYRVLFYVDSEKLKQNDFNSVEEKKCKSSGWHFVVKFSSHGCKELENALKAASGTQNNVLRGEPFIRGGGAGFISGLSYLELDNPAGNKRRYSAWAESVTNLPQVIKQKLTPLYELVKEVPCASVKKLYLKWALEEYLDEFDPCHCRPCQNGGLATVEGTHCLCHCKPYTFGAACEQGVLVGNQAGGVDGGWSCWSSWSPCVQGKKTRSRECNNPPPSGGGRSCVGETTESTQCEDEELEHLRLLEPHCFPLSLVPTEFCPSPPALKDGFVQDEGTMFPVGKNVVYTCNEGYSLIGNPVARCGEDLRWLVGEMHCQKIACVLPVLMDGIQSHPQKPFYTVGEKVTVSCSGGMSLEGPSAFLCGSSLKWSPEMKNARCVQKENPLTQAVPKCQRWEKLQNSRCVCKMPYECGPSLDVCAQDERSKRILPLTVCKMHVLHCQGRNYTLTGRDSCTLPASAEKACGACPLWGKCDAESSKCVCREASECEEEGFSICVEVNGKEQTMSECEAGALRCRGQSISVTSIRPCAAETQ

Tests used:
[1] = molecular target: Clusterin (human (endogenous in normal human serum)) (UniProt P10909); assay: co-IP; clusterin captured from NHS with anti-clusterin mAb MC-2D5; eluate on SDS-PAGE (non-reducing and reducing), blot probed with anti-C7 mAb M7-HB2H
[2] = molecular target: Complement C7 (human (endogenous in normal human serum)) (UniProt P10643); assay: ELISA; custom sandwich ELISA: plate-coated anti-C7 mAb captures C7, bound clusterin detected with HRP-conjugated anti-clusterin mAb; samples 30 min at room temperature: serum-purified C7, NHS, zymosan-activated NHS, EDTA plasma; complex in AU/mL against serum-purified C7 as standard
[3] = molecular target: Complement C7 (human (endogenous in normal human serum)) (UniProt P10643); assay: SEC; pooled NHS, ultracentrifuged, on Superdex 200 HR 10/30 in PBS (150 mM NaCl, pH 7.4), 4°C; fractions analysed by non-reducing Western blot and by C7-CLU and C7 ELISA
[4] = molecular target: Complement C7 (human (endogenous in normal human serum)) (UniProt P10643); assay: co-IP; C7 captured from NHS with anti-C7 mAbs M7-WU4-15 or M7-HB2H; eluate on SDS-PAGE (non-reducing and reducing), blot probed with anti-clusterin mAb MC-2D5

| binding [1] | binding [2] | binding [3] | binding [4] | Substance |
| --- | --- | --- | --- | --- |
| binds |  |  |  | Complement C7 (from UniProt P10643 23-843) |
|  | binds | binds | binds | Clusterin (from UniProt P10909 23-227; P10909 228-449) |
